# Experimental data: PubChem BioAssay AID504444 (National Center for Advancing Translational Sciences (NCATS), 2011)
# Out of some 360,000 compounds screened, about 7,500 (2.1%) were called active. Inconclusive results, whose numbers are uncertain, are shown with a selection of clear calls. The call rests on the fitted dose curve; in most records, active means well fitted inhibition curve with a large enough effect; inconclusive means small, poorly fitted or top-dose-only effect, or effect the other way; inactive means flat fitted curve, though single readings scatter. A potency beside an inconclusive call is a rough fit, not a confirmed value.
# Assay: Nrf2 qHTS screen for inhibitors; further: nearly all actives have a fitted effect of over 60% in size
# Details: A549 ARE-Fluc reporter, luciferase luminescence, 18-24 h; series mostly up to 46 µM
# How it was run: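 A549 ARE_Fluc cells, 5000/well, 5% FBS OPTI-MEM; compounds in dose-response, 18-24 h at 37 °C/5% CO2; CellTiter-Fluor viability read (Ex 405/Em 525), then BugLite luciferase luminescence = Nrf2 activity.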
# Potency means the concentration at half of the fitted maximal effect.
row,Structure (SMILES),Potency
1,Cc1nc(N)sc1N=Nc1ccc(F)cc1,"inconclusive: 13 µM [activator, partial curve, poor fit]"
2,CCOC(=O)c1ccc(N2C(=O)c3n[nH]c(-c4ccco4)c3C2c2ccc(O)c(OCC)c2)cc1 (stereo unspecified),"inconclusive: 29.1 µM [falling, single point]"
3,Cc1cccc(Nc2nnc(-c3ccc(C)c(S(=O)(=O)NCC4CCCO4)c3)c3ccccc23)c1 (stereo unspecified),"inconclusive: 16.4 µM [falling, partial curve]"
4,COc1ccc(OC)c(C(c2nnnn2CCc2ccccc2)N2CCN(c3ccccc3)CC2)c1 (stereo unspecified),"inconclusive: 14.1 µM [falling, single point]"
5,COC(=O)C1=C(C)NC(=O)C1(NC(=O)c1cc(OC)c(OC)c(OC)c1)C(F)(F)F (stereo unspecified),inactive
6,CC(C)CCNC(=O)C1CC(c2ccccc2[N+](=O)[O-])=NO1 (stereo unspecified),"inconclusive: 18.4 µM [activator, single point]"
7,Cc1ccc(C(=O)CSc2cc(C)[nH]c(=O)n2)cc1,"inconclusive: 0.58 µM [activator, full curve]"
8,COc1ccc(OC)c(NC(=O)CSc2n[nH]c(-c3cccnc3)n2)c1,"inconclusive: 13 µM [falling, partial curve]"
9,COc1ccc(C(=O)Nc2nccs2)cc1,"inconclusive: 2.91 µM [activator, full curve]"
10,C=Cc1ccc(Cn2nc(-c3ccc(C)cc3)ccc2=O)cc1,"inconclusive: 25.9 µM [falling, single point]"
11,COc1ccc(S(=O)(=O)N2CCN(S(=O)(=O)c3c(F)cccc3F)CC2)cc1,"inconclusive: 29.1 µM [falling, single point]"
12,CCC(=O)N1CCN(c2ccc(NC(=O)c3cc4ccccc4o3)cc2Cl)CC1,"inconclusive: 23.1 µM [falling, partial curve, poor fit]"
13,Fc1ccc2cnc(C3=CCCCC3)cc2c1,"inconclusive: 6.51 µM [activator, partial curve]"
14,O=C(NC1CCCCC1)c1ccc(CSc2nc3cccnc3n2Cc2ccc(F)cc2)cc1,inactive
15,Cc1ccc(S(=O)(=O)N(C)c2ccc(C(=O)Nc3ccc(C)cn3)cc2)cc1,active: 11.6 µM
16,COC(=O)Nc1nnc(-c2ccncc2)s1,"inconclusive: 8.2 µM [activator, partial curve, poor fit]"
17,COc1ccc(NC(=O)c2ccccc2NC(=O)C2CC=CCC2C(=O)O)cc1 (stereo unspecified),"inconclusive: 6.51 µM [activator, partial curve, poor fit]"
18,CCOC(=O)c1ccc(NC(=O)CCC(=O)N2Cc3ccccc3Oc3ncccc32)cc1,inactive
19,Cc1cccnc1NC(=O)c1ccc(Cl)c(S(=O)(=O)N2CCCC2)c1,"inconclusive: 32.6 µM [falling, single point]"
20,OC(CNC1CCCC1)COc1ccc(-c2ccccc2)cc1 (stereo unspecified),inactive
21,CCN(CC)S(=O)(=O)c1ccc(Cl)c(C(=O)Nc2ccc(Cl)cc2[N+](=O)[O-])c1,"inconclusive: 20.6 µM [falling, partial curve]"
22,O=C(O)CCn1c(=O)c2cccn2c2cccnc21,inactive

row,Structure (SMILES),Potency
1,CCN=c1scc(C)n1/N=C/c1cc(Br)c(O)c(Br)c1,inactive
2,COc1cccc(C(=O)Nc2ccc3c(C)cc(=O)oc3c2)c1,"inconclusive: 0.651 µM [activator, partial curve]"
3,C=CCSc1nc2sc(C)c(C)c2c(=O)n1CC=C,"inconclusive: 20.6 µM [activator, single point]"
4,Cc1cc(Oc2ccccc2)nc(SCC(=O)Nc2ccc(Cl)cc2Cl)n1,"inconclusive: 29.1 µM [falling, single point]"
5,COc1cccc(NC(=O)Nc2ccc3nc(C)c(C)nc3c2)c1,"inconclusive: 8.2 µM [falling, partial curve]"
6,COc1cccc(-c2ccc(NC(=O)C3CCCN(Cc4cnc(C)s4)C3)cc2)c1 (stereo unspecified),"inconclusive: 23.1 µM [falling, single point]"
7,COc1ccc(C(C)(C)C)cc1NC(=O)C1CC=CCC1C(=O)O (stereo unspecified),"inconclusive: 7.31 µM [falling, partial curve, poor fit]"
8,O=C(Nc1cc(C(F)(F)F)ccc1N1CCOCC1)c1n[nH]c(=O)c2ccccc12,inactive
9,COc1cc(-c2nnc3sc(Cc4ccccc4)nn23)cc(OC)c1OC,"inconclusive: 0.92 µM [falling, full curve, poor fit]"
10,COc1cccc(/C=N/NC(=O)c2[nH]c(C)c(C(=O)N/N=C/c3cccc(OC)c3)c2C)c1,"inconclusive: 29.1 µM [falling, single point]"
11,COC(=O)c1sc(N2CCN(c3ccc(Cl)cc3)CC2)nc1N,"inconclusive: 29.1 µM [falling, single point]"
12,COCCCNc1nc(-c2ccncc2)nc2ccccc12,inactive
13,Cc1csc(CNc2ncnc3ccc(-c4ccccc4Cl)cc23)c1,"inconclusive: 18.4 µM [falling, single point]"
14,O=C(NCCSCc1c(F)cccc1Cl)c1ccc(CN2CCOCC2)cc1,"inconclusive: 23.1 µM [falling, partial curve, poor fit]"
15,CCC(C)(C)n1nnnc1C(c1cc2cc(OC)ccc2[nH]c1=O)N1CCc2ccccc21 (stereo unspecified),inactive
16,CN(C)/N=C/c1ccc(P(c2ccc(/C=N/N(C)C)o2)c2ccc(/C=N/N(C)C)o2)o1,"inconclusive: 29.1 µM [falling, single point]"
17,COc1ccc(S(=O)(=O)Nc2ccc(N3CCOCC3)cc2)cc1Br,"inconclusive: 18.4 µM [falling, partial curve, poor fit]"
18,Cc1ccccc1C(=O)Nc1ccccc1C(=O)N/N=C\c1ccco1,inactive
19,CC(C)CNC(=O)CSc1nnc(-c2ccccn2)n1Cc1ccccc1,"inconclusive: 5.8 µM [activator, partial curve, poor fit]"
20,CCOC(=O)/C(C#N)=C\C=C1C=CN(C)C=C1,"inconclusive: 2.91 µM [activator, partial curve, poor fit]"
21,Cc1cccc(Nc2nnc(SCC3CCCCO3)s2)c1 (stereo unspecified),"inconclusive: 2.06 µM [activator, full curve]"
22,CCOC(=O)c1c(-c2ccc(F)cc2)csc1/N=C/N(C)C,active: 16.4 µM

# Sorted by number of heavy atoms (ascending): some entries from above.
row,Structure (SMILES),Potency
20,CCOC(=O)/C(C#N)=C\C=C1C=CN(C)C=C1,"inconclusive: 2.91 µM [activator, partial curve, poor fit]"
3,C=CCSc1nc2sc(C)c(C)c2c(=O)n1CC=C,"inconclusive: 20.6 µM [activator, single point]"
1,CCN=c1scc(C)n1/N=C/c1cc(Br)c(O)c(Br)c1,inactive
21,Cc1cccc(Nc2nnc(SCC3CCCCO3)s2)c1 (stereo unspecified),"inconclusive: 2.06 µM [activator, full curve]"
22,CCOC(=O)c1c(-c2ccc(F)cc2)csc1/N=C/N(C)C,active: 16.4 µM
2,COc1cccc(C(=O)Nc2ccc3c(C)cc(=O)oc3c2)c1,"inconclusive: 0.651 µM [activator, partial curve]"
5,COc1cccc(NC(=O)Nc2ccc3nc(C)c(C)nc3c2)c1,"inconclusive: 8.2 µM [falling, partial curve]"
13,Cc1csc(CNc2ncnc3ccc(-c4ccccc4Cl)cc23)c1,"inconclusive: 18.4 µM [falling, single point]"
18,Cc1ccccc1C(=O)Nc1ccccc1C(=O)N/N=C\c1ccco1,inactive
4,Cc1cc(Oc2ccccc2)nc(SCC(=O)Nc2ccc(Cl)cc2Cl)n1,"inconclusive: 29.1 µM [falling, single point]"
14,O=C(NCCSCc1c(F)cccc1Cl)c1ccc(CN2CCOCC2)cc1,"inconclusive: 23.1 µM [falling, partial curve, poor fit]"
6,COc1cccc(-c2ccc(NC(=O)C3CCCN(Cc4cnc(C)s4)C3)cc2)c1 (stereo unspecified),"inconclusive: 23.1 µM [falling, single point]"
16,CN(C)/N=C/c1ccc(P(c2ccc(/C=N/N(C)C)o2)c2ccc(/C=N/N(C)C)o2)o1,"inconclusive: 29.1 µM [falling, single point]"
15,CCC(C)(C)n1nnnc1C(c1cc2cc(OC)ccc2[nH]c1=O)N1CCc2ccccc21 (stereo unspecified),inactive

# Nothing new here: an excerpt of the list.
row,Structure (SMILES),Potency
19,Cc1cccnc1NC(=O)c1ccc(Cl)c(S(=O)(=O)N2CCCC2)c1,"inconclusive: 32.6 µM [falling, single point]"
20,OC(CNC1CCCC1)COc1ccc(-c2ccccc2)cc1 (stereo unspecified),inactive

# Further compounds

row,Structure (SMILES),Potency
1,Cn1c(=S)n(/N=C/c2cccs2)c2ccccc21,"inconclusive: 11.6 µM [activator, partial curve, poor fit]"
2,COc1cccc(C2c3c(-c4ccccc4O)n[nH]c3C(=O)N2Cc2ccco2)c1 (stereo unspecified),inactive
3,O=C(N/N=C/c1c(O)n(-c2ccccc2Cl)c(=O)c2ccccc12)C1COc2ccccc2O1 (stereo unspecified),"inconclusive: 23.1 µM [falling, single point]"
4,Cc1cccc(NC(=O)c2ccc(Cl)c(S(=O)(=O)N3CCCCC3)c2)n1,"inconclusive: 29.1 µM [falling, single point]"
5,Cc1onc(-c2ccccc2)c1C(=O)NNC(=S)NC(=O)/C=C/c1ccccc1,"inconclusive: 29.1 µM [falling, single point]"
6,COc1ccccc1CCNC(=O)c1cc(COc2cccc(C(F)(F)F)c2)on1,"inconclusive: 14.6 µM [falling, single point]"
7,CCOc1cc(S(=O)(=O)NCc2ccncc2)ccc1Cl,active: 1.03 µM
8,CC(C)(C)C1CCc2c(sc3nc(-c4cc5cc(Br)ccc5oc4=O)[nH]c(=O)c23)C1 (stereo unspecified),"inconclusive: 6.51 µM [activator, partial curve, poor fit]"
9,CC(=O)Nc1ccc(NC(=O)c2cc3sccc3n2Cc2ccc(F)cc2)cc1,"inconclusive: 4.61 µM [activator, single point]"
10,Cc1ccccc1N1C(=O)C2C3C=CC(C2C1=O)N(C)C3=O (stereo unspecified),"inconclusive: 4.61 µM [activator, partial curve, poor fit]"
11,COc1ccc(NC(=O)CSc2nc3ccc(Nc4nc(N5CCOCC5)nc(N5CCOCC5)n4)cc3s2)cc1,"inconclusive: 20.6 µM [falling, partial curve, poor fit]"
12,CN(CC(=O)Nc1ccc(Cl)c(C(F)(F)F)c1)C(=O)c1cc(-c2ccncc2)nc2ccccc12,"inconclusive: 29.1 µM [falling, single point]"
13,COC(=O)C1=C(C)N(c2cccc3ccccc23)C(=O)C1,inactive
14,Cc1sc(NC(=O)C2C3CCC(O3)C2C(=O)O)nc1-c1ccc(CC(C)C)cc1 (stereo unspecified),"inconclusive: 29.1 µM [activator, single point]"
15,COc1ccc(C(=O)Oc2cccc(Nc3ncnc4ccccc34)c2)cc1OC,"inconclusive: 18.4 µM [falling, partial curve, poor fit]"
16,c1ccc(-c2oc3ncnc(NCCCN4CCOCC4)c3c2-c2ccccc2)cc1,inactive
17,C=CCSc1nnc(NC(=O)Cc2ccc(OC)c(OC)c2)s1,"inconclusive: 18.4 µM [falling, partial curve, poor fit]"
18,COc1ccc(OCc2nnc(SCC(=O)N3CCCc4ccccc43)n2-c2ccc(C)cc2)cc1,active: 23.1 µM
19,COc1ccc(CCN2C(=O)CC(N3CCOCC3)C2=O)cc1 (stereo unspecified),"inconclusive: 7.31 µM [falling, partial curve, poor fit]"
20,COC(=O)c1ccc(/C=C2\SC(=S)N(CCCC(=O)NCCCN3CCOCC3)C2=O)cc1,"inconclusive: 20.6 µM [activator, single point]"
21,COCCCNC(=O)c1c(N)n(/N=C/c2cccs2)c2nc3ccccc3nc12,inactive
22,Cc1ccc(NC(=O)C(=O)NCC(c2cccnc2)N2CCN(c3ccccc3F)CC2)cc1Cl (stereo unspecified),inactive
